# The supplement of paper PMC4683952
# Some of the results follow. Cut-off read from the data, not from the text of the source: active = 2 or more and inactive = the rest. Single values are uncertain here, since repeats match poorly.
# Tested on: Lgr5 (MarsCy1-Lgr5-EGFP, U2OS)
# Test: cell-surface Lgr5 expression (SCi1 fluorescence, background-subtracted) relative to WT DMSO (fold of DMSO control); higher = more Lgr5 at the plasma membrane
# Settings: U2OS MarsCy1-Lgr5-EGFP stable; treatment time: overnight; library: ActiProbe-5K (TimTec); 25 µM
row,SMILES,cell-surface Lgr5 expression
1,O=c1oc2ccccc2c(O)c1C1c2ccccc2Oc2c1c(=O)oc1ccccc21 (stereo not drawn),inactive: 1.14
2,O=c1[nH]c2nonc2[nH]c1=O,inactive: 1.16
3,C(#CCN1CCCC1)CN1CCCC1,inactive: 1.45
4,Cc1[nH]nc2c1C1(CN3CCC1CC3)C(C#N)=C(N)O2 (stereo not drawn),inactive: 1.25
5,S=C=NCC1CCCO1 (stereo not drawn),inactive: 1.34
6,Cc1cccc(NC2=NCC(C)S2)n1 (stereo not drawn),inactive: 1.29
7,c1ccc2sc(N3CCNCC3)nc2c1,inactive: 1.17
8,O=C1c2ccccc2-c2cccc3cccc1c23,inactive: 1.24
9,O=[N+]([O-])c1cc[n+]([O-])c2ccccc12,inactive: 1.66
10,CC(C)C/C(=N/O)c1cn(C)c2ccccc12,inactive: 1.18
11,CCCc1[nH]nc2c1C1(CN3CCC1CC3)C(C#N)=C(N)O2 (stereo not drawn),inactive: 1.11
12,Cc1cc(C)[n+]2cc(Br)ccc2n1.[O-][Cl+3]([O-])([O-])[O-],inactive: 1.17
13,O=S1(=O)CC2SC2C1 (stereo not drawn),inactive: 1.2
14,C=C(C)CC1NC2CC(C)(C)C1c1ccccc12 (stereo not drawn),inactive: 1.62
15,OC(c1ccc(Cl)s1)(c1ccc(Cl)s1)C1CN2CCC1CC2 (stereo not drawn),inactive: 1.23
16,c1ccc(/N=N/Nc2ccccc2)cc1,inactive: 1.09
17,CN1C2C=C3[C@H](C1CC2)[C@@H](c1ccc(Cl)cc1)C(C#N)=C(N)C3(C#N)C#N (stereo partly drawn),inactive: 1.17
18,Cl.NC1(c2ccc(F)cc2)CC1,inactive: 1.31
19,CC(=O)Cn1nnc([N+](=O)[O-])n1,inactive: 0.883
20,Cc1cc(C)c(/C(N)=N\O)c(Cl)n1,inactive: 1.35
21,Cl.ClCc1ccncc1,inactive: 1.62

# By substructure: those above with two or more sulfur atoms (two)
row,SMILES,cell-surface Lgr5 expression
13,O=S1(=O)CC2SC2C1 (stereo not drawn),inactive: 1.2
15,OC(c1ccc(Cl)s1)(c1ccc(Cl)s1)C1CN2CCC1CC2 (stereo not drawn),inactive: 1.23

# More records.

row,SMILES,cell-surface Lgr5 expression
1,c1(/C=C(\C#N)C#N)c2c(cccc2)cc2c1cccc2,inactive: 1.36
2,Nc1nc(N)c2nn[nH]c2n1,inactive: 1.11
3,O=[N+]([O-])c1cnn(-c2nnn[nH]2)c1,inactive: 0.919
4,C/C(=N\O)c1cn(C)c2ccccc12,inactive: 1.16
5,c1(n(ccc1)C)/C=C(\C#N)C#N,inactive: 1.01
6,NCC1CCCN2CCCCC12 (stereo not drawn),inactive: 1.19
7,N/C(=N/O)c1nonc1N,inactive: 1.3
8,O=C1NC(=O)C(=O)C(O)(O)N1,inactive: 0.577
9,CCCCC/C(=N/O)c1c(C)[nH]c2ccccc12,inactive: 1.02
10,N=c1nc(-c2ccccc2)n(-c2ccccc2)s1.[O-][Cl+3]([O-])([O-])O,inactive: 0.825
11,CN(C)CCNc1ccc([N+](=O)[O-])c2cccnc12.Cl,inactive: 1.96
12,N/C(=N/N=C/c1ccc([N+](=O)[O-])o1)c1nonc1N,inactive: 0.605
13,O=C(c1nccs1)C1CCCN1 (stereo not drawn),inactive: 0.654
14,Fc1ccc(COCC23COCN2COC3)cc1,inactive: 1.08
15,COC(C)C(O)(C(=O)OCC1=CCN2CC[C@H](O)C12)C(C)C (stereo partly drawn),inactive: 1.4
16,C=C[C@]1(O)CCC2C3CC4OC45CC(OC(C)=O)CCC5(C)C3CCC21C (stereo partly drawn),inactive: 1.65
17,N#CCC1CCCN2CCCCC12 (stereo not drawn),inactive: 1.03
18,COc1cc2c(cc1OC)-c1c(OC)c(OC)c([N+](=O)[O-])c3c1C(C2)N(C)CC3 (stereo not drawn),inactive: 1.06
19,O=S(c1ccc(Cl)cc1)c1ccc(Cl)cc1,inactive: 0.788
20,COCCN1CCC(O)C2CCCCC21 (stereo not drawn),inactive: 0.985
21,CCCCc1nc2c(o1)NC(N)=C(C#N)C21CN2CCC1CC2 (stereo not drawn),inactive: 1.19

row,SMILES,cell-surface Lgr5 expression
1,N#Cc1nonc1-c1nnn[nH]1,inactive: 0.859
2,CC1CC(=O)C2CCCCC2N1 (stereo not drawn),inactive: 1.14
3,COc1cc(C2c3cc4c(cc3OC3(N5CCCC5)CCCC23)OCO4)cc(OC)c1OC (stereo not drawn),inactive: 1.3
4,c1ccc2c(c1)Nc1ccccc1S2,inactive: 1.11
5,CCC(C)C12CN3CCN(CC(C)(C3)C1=O)C2 (stereo not drawn),inactive: 1.22
6,O=C(OCC1CCCN2CCCCC12)c1cc2ncc(Br)cn2n1 (stereo not drawn),inactive: 1.11
7,Cc1c(C(N)=O)nnn1-c1nonc1N,inactive: 0.832
8,c1(oc(/C=C(\C#N)C#N)cc1)N1CCOCC1,inactive: 1.06
9,Fc1ccc2c(c1)[C@@H]1C=CC[C@@H]1[C@H](c1cccnc1)N2,inactive: 0.874
10,Oc1cc(Cl)c(Cl)cc1O,inactive: 0.928
11,CC(=O)OCC1=C(C(=O)O)N2C(=O)C(N)C2SC1 (stereo not drawn),inactive: 0.845
12,Cn1c(=O)c2c(c3ccccc31)NC(=S)NN=C2,inactive: 0.827
13,C[n+]1noc(/N=C(\[O-])C(F)(F)F)c1-c1ccccc1,inactive: 1.05
14,CN1CC2c3ccccc3OC(c3ccc(Cl)cc3)C2([N+](=O)[O-])O1 (stereo not drawn),inactive: 0.616
15,O=[N+]([O-])c1cc(F)c(N2CCCCCC2)cc1N1CCNCC1,inactive: 0.799
16,Cc1nn(C)c(C)c1CN1CCNCC1,inactive: 1.41
17,Clc1ccc2c(N3CCNCC3)ccnc2c1,inactive: 0.95
18,COC(=O)Cn1nnc(S(C)(=O)=O)n1,inactive: 1.08
19,[Br-].[Br-].c1cc[n+]2c(c1)-c1cccc[n+]1CC2,inactive: 0.662
20,Cn1nnnc1SCSc1nnnn1C,inactive: 1.51
21,c1(c(oc(c1)C)SCC)/C=C(\C#N)C#N,inactive: 1.24

row,SMILES,cell-surface Lgr5 expression
1,O=c1[nH]c(=S)[nH]c(O)c1Cc1c(O)[nH]c(=S)[nH]c1=O,inactive: 1.17
2,c1cnc2nc(N3CCNCC3)oc2c1,inactive: 0.996
3,Fc1ccc(C2CCNC2)cc1 (stereo not drawn),inactive: 0.993
4,CC(C)(C)NC(=O)[C@@H]1C[C@@H]2CCCC[C@@H]2CN1,inactive: 1.08
5,O=c1oc2ccccc2c(O)c1C1c2cc(Cl)ccc2Oc2c1c(=O)oc1ccccc21 (stereo not drawn),inactive: 1.51
6,CCCNC(=O)OCC12COCN1COC2,inactive: 0.996
7,Fc1cccc(C2NCc3ccccc3-n3cccc32)c1 (stereo not drawn),inactive: 1.26
8,C/C(Cn1nnc([N+](=O)[O-])n1)=N\NC(=O)c1c(C)nnn1-c1nonc1N,inactive: 0.906
9,C/C(=N\O)c1c(C)[nH]c2ccccc12,inactive: 0.813
10,O=C(O)Cn1cnc([N+](=O)[O-])n1,inactive: 1.36
11,COC(=O)c1n[nH]nc1[N+](=O)[O-],inactive: 1.03
12,CN(C)c1ccc([N+](=O)[O-])c2cccnc12,inactive: 0.951
13,COCC(=O)OCC1CCCN2CCCCC12 (stereo not drawn),inactive: 1.84
14,c1(sc(CCCC)cc1)/C=C(\C#N)C#N,inactive: 1.1
15,Nc1ccc(S(=O)(=O)O)cc1.Nc1ncn[nH]1,inactive: 0.867
16,Nc1ccc2c(c1)Cc1ccccc1-2,inactive: 1.05
17,CN1CCN(c2cc3nc(N)c(C#N)nc3cc2F)CC1,inactive: 1.24
18,Cc1coc2c1CCC(C)C2 (stereo not drawn),inactive: 1.28
19,OC12CC(C3COC1O3)n1c(nc3ccccc31)N2 (stereo not drawn),inactive: 1.29
20,c1([N+]([O-])=O)cn(\C(=C/N(C)C)/C=[N+](/C)C)nc1.[O-]Cl(=O)(=O)=O,inactive: 1.45
